Test [1] addresses T1, ZmNF-YB2a (maize) (UniProt P25209).
T1 sequence: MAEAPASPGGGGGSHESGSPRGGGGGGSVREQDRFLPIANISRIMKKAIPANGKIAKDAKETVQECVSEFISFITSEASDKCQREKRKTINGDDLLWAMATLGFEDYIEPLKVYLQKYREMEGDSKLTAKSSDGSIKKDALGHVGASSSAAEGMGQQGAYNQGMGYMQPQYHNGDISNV
The experiment in a line: two-hybrid; pairwise tests in yeast with re-cloned coding regions (untranslated regions removed); NF-YB coding regions in the bait vector (reciprocal direction); set of N-terminal and C-terminal truncations of TaNF-YB2.

Test [2] concerns the target T1, ZmNF-YB2a (maize). In words: two-hybrid; library screen in yeast; bait against wheat cDNA libraries WGL, WENDL, WHSL, WGD and WRDL (cv. RAC875 tissues under drought and heat); first bait ZmNF-YB2a in pGBKT7, second bait TaNF-YC15 from Ala97.

Results are given in words; binding and its absence hold for the method and conditions named. Binding can be weak; no strength is given.

As to “TaNF-YC15 (wheat (Triticum aestivum L. cv. RAC875))”, the binding entry with ZmNF-YB2a (maize) [1] and with ZmNF-YB2a (maize) [2] was “binds” each time.

Source of the values: publication PMC4623681.
